Measurements reported in PubChem BioAssay AID504774 (Drosophila RNAi Screening Center, 2011).
The screen tested about 23,000 reagents; this is an unselected part of those with a known target gene and a result. 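Values are quantile-normalised luminescence on an arbitrary scale; higher means more cells surviving MMS.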 Names joined by + are all predicted targets of the reagent.

Screen: 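Knock-downs that shift viability of MMS-exposed cells relative to untreated ones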 (primary screen)
Cells: Drosophila Kc167 cells
Reagents: long dsRNA against Drosophila genes, about 0.25 µg dsRNA per well
Timing: about 6 days: 3 days knock-down, then 3 days with or without MMS
Conditions: methyl methanesulphonate 0.004% (w/v) for 3 days after knock-down
Measurement: 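ATP-dependent luminescence as a measure of live cells in MMS-exposed wells, quantile normalised within each plate, with replicate values also given as a mean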
Direction: mean viability with MMS and viability with MMS: higher = more surviving cells after MMS

no.	predicted target	dsRNA	mean viability with MMS	viability with MMS, replicate 1	viability with MMS, replicate 2
1	Ccdc85 (GeneID 33509)	DRSC00501	2.86e6	3.25e6	3.34e6
2	Ccdc85 (GeneID 33509)	DRSC23173	3.59e6	4.07e6	4.09e6
3	del (GeneID 35380)	DRSC03170	3.68e6	4.11e6	4.28e6
4	cpb (GeneID 33346)	DRSC00809	3.58e6	3.83e6	4.29e6
5	CG9922 (GeneID 41708)	DRSC16579	3.64e6	4.14e6	4.14e6
6	CG34107 (GeneID 4379852)	DRSC14554	3.67e6	4.14e6	4.09e6
7	Syx18 (GeneID 42933)	DRSC14628	3.55e6	4.09e6	3.96e6
8	Atu (GeneID 40684)	DRSC12123	3.65e6	4.13e6	4.17e6
9	CG33468 (GeneID 2768833)	DRSC22940	3.48e6	3.96e6	3.98e6
10	elav (GeneID 31000)	DRSC18772	3.52e6	3.97e6	4.02e6
11	CG42506 (retired record) + CG43759	DRSC19464	3.63e6	4.22e6	4.05e6
12	CG42506 (retired record) + CG43759	DRSC19543	3.58e6	4.11e6	4.00e6
13	CG4882 (GeneID 37787)	DRSC04495	3.49e6	3.96e6	3.94e6
14	PIG-C (GeneID 38410)	DRSC08241	3.48e6	3.99e6	3.92e6
15	CG17744 (GeneID 38768)	DRSC10286	3.52e6	3.98e6	4.02e6
16	CG34269 (GeneID 5740713)	DRSC07884	3.54e6	4.03e6	4.01e6
17	CG1113 (GeneID 40629)	DRSC12163	3.38e6	3.89e6	3.79e6
18	CG33981 + fab1	DRSC07412	3.58e6	3.97e6	4.16e6
19	slbo (GeneID 37889)	DRSC04716	3.76e6	3.99e6	4.01e6
20	zormin (GeneID 2769001)	DRSC07969	3.59e6	4.01e6	4.12e6
21	zormin (GeneID 2769001)	DRSC08210	3.56e6	4.05e6	4.00e6
22	zormin (GeneID 2769001)	DRSC08212	3.52e6	4.05e6	3.93e6
23	zormin (GeneID 2769001)	DRSC08213	3.62e6	4.12e6	4.05e6
24	zormin (GeneID 2769001)	DRSC08297	3.58e6	4.10e6	4.00e6
25	zormin (GeneID 2769001)	DRSC08571	3.37e6	3.84e6	3.83e6
26	zormin (GeneID 2769001)	DRSC22483	3.64e6	4.09e6	4.11e6
27	alphaTub67C (GeneID 39130)	DRSC11321	3.39e6	3.76e6	3.87e6
28	CG13063 (GeneID 39797)	DRSC09946	3.54e6	3.92e6	4.10e6
29	RASSF8 (GeneID 43096)	DRSC15707	3.68e6	4.13e6	4.17e6
30	Hap40 (GeneID 32507)	DRSC20085	3.68e6	4.17e6	4.18e6
31	CG3308 (GeneID 42527)	DRSC15474	3.57e6	4.09e6	4.01e6
32	CG34126 (GeneID 318872)	DRSC02726	3.52e6	3.95e6	4.02e6
33	CG34126 (GeneID 318872)	DRSC22079	3.77e6	4.25e6	4.19e6
34	Bdp1 (GeneID 34748)	DRSC03192	3.24e6	3.61e6	3.65e6
35	Dg (GeneID 36773)	DRSC06718	3.58e6	3.94e6	4.17e6
36	CG12374 (GeneID 36410)	DRSC06143	3.69e6	4.01e6	4.37e6
37	CG31204 (GeneID 318625)	DRSC15106	3.32e6	3.73e6	3.83e6
38	eIF4G2 (GeneID 42819)	DRSC14207	3.39e6	3.83e6	3.86e6
39	eIF4G2 (GeneID 42819)	DRSC21739	3.29e6	3.80e6	3.82e6
40	Wbp2 (GeneID 39460)	DRSC09821	3.15e6	3.62e6	3.66e6
41	CG4286 (GeneID 37416)	DRSC04459	3.63e6	4.23e6	4.00e6
42	TwdlP (GeneID 43201)	DRSC14734	3.58e6	4.06e6	4.06e6
43	CG4480 (GeneID 34864)	DRSC02750	3.45e6	3.86e6	3.97e6
44	Rlip (GeneID 42484)	DRSC16828	3.52e6	3.99e6	4.00e6
45	Fib (GeneID 37662)	DRSC04614	3.24e6	3.60e6	3.63e6
46	Sox100B (GeneID 45039)	DRSC15090	3.44e6	3.85e6	3.90e6
47	Sox100B (GeneID 45039)	DRSC16866	4.13e6	4.76e6	5.04e6

A portion taken from the entries so far, as a working copy:
no.	predicted target	dsRNA	mean viability with MMS	viability with MMS, replicate 1	viability with MMS, replicate 2
24	zormin (GeneID 2769001)	DRSC08297	3.58e6	4.10e6	4.00e6
25	zormin (GeneID 2769001)	DRSC08571	3.37e6	3.84e6	3.83e6
